Data: paper PMC2755476, “The Sam domain of the lipid phosphatase Ship2 adopts a common model to interact with Arap3-Sam and EphA2-Sam” (BMC Structural Biology, 2009)
Results are given in words; binding and its absence hold for the method and conditions named. Binding can be weak; no strength is given.

T1: Sam domain of Ship2 (Src homology 2 domain-containing phosphoinositide-5-phosphatase 2) (UniProt O15357)
T1 sequence: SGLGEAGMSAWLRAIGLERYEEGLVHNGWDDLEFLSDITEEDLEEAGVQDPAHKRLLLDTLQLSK

B1: Sam domain of Ship2 (Src homology 2 domain-containing phosphoinositide-5-phosphatase 2) (domain or fragment, UniProt O15357 1194-1258)
chain: T1 sequence

Experiments:
[1] = target: T1, Sam domain of Ship2 (Src homology 2 domain-containing phosphoinositide-5-phosphatase 2); test: NMR 15N R1/R2 relaxation (rotational correlation time); 25 C, 600 MHz; 15N Arap3-Sam alone at 150 uM and 1.4 mM; 15N Ship2-Sam (1 mM) with unlabeled Arap3-Sam (2 mM); both purified
[2] = target: T1, Sam domain of Ship2 (Src homology 2 domain-containing phosphoinositide-5-phosphatase 2); test: NMR titration; 2D [1H,15N]-HSQC chemical shift perturbation; 15N Ship2-Sam (200 uM) titrated with unlabeled Arap3-Sam (50-233 uM), and 15N Arap3-Sam titrated with unlabeled Ship2-Sam (50, 100, 200 uM); both purified
[3] = target: Sam domain of Arap3 (Arap3-Sam), construct with N-terminal 6His-tag (human); test: as above

Molecule | binding [1] | binding [2] | binding [3]
Sam domain of Arap3 (Arap3-Sam), construct with N-terminal 6His-tag (human) (domain or fragment) | binds | binds | 
B1 |  |  | binds
